Some results were stated once for a whole list of compounds, not compound by compound. At least one compound was matched to its structure with a doubt left.
System: α2δ protein
Experiment: α2δ protein binding experiment ([3H]-gabapentin binding inhibition, rat cerebral cortex membrane fraction)
Conditions: 0.1 μmol/L test compound, 20 nmol/L [3H]-Gabapentin

Compound: CCNc1ncc2c(n1)N1CCC[C@H]1CN(c1cccc(-c3nnn(CC)n3)c1)C2=O [Compound 139, (S)-5-[3-(2-Ethyl-2H-tetrazol-5-yl)phenyl]-9-ethylamino-1,2,3,3a,4,5-hexahydro-5,8,10,10b-tetraazabenzo[e]azulen-6-one]
- inhibitory activity ([3H]-Gabapentin binding inhibition): ≥ 50%

Compound: CCNc1ncc2c(n1)N1CCC[C@H]1CN(c1c[nH]c3ccc(C#N)cc13)C2=O [Compound 140, (S)-5-(5-Cyanoindole-3-yl)-9-ethylamino-1,2,3,3a,4,5-hexahydro-5,8,10,10b-tetraazabenzo[e]azulen-6-one]
- inhibitory activity ([3H]-Gabapentin binding inhibition): ≥ 50%

Compound: CCNc1ncc2c(n1)N1CCC[C@H]1CN(c1ccc3oc(=O)n(C)c3c1)C2=O [Compound 143, (S)-9-Ethylamino-5-(3-methylbenzo[d]oxazol-2(3H)-on-5-yl)-1,2,3,3a,4,5-hexahydro-5,8,10,10b-tetraazabenzo[e]azulen-6-one]
- inhibitory activity ([3H]-Gabapentin binding inhibition): ≥ 50%

Compound: CNc1ncc2c(n1)N1CCC[C@H]1CN(c1ccc3oc(=O)n(C)c3c1)C2=O [Compound 144, (S)-9-Methylamino-5-(3-methylbenzo[d]oxazol-2(3H)-on-5-yl)-1,2,3,3a,4,5-hexahydro-5,8,10,10b-tetraazabenzo[e]azulen-6-one]
- inhibitory activity ([3H]-Gabapentin binding inhibition): ≥ 50%

Compound: CCNc1ncc2c(n1)N1CCC[C@H]1CN(c1cccc3c1C(=O)C(=O)N3C)C2=O [Compound 145, (S)-9-Ethylamino-5-(1-methylindoline-2,3-dion-4-yl)-1,2,3,3a,4,5-hexahydro-5,8,10,10b-tetraazabenzo[e]azulen-6-one]
- inhibitory activity ([3H]-Gabapentin binding inhibition): ≥ 50%

Compound: CNc1ncc2c(n1)N1CCC[C@H]1CN(c1cccc3c1C(=O)C(=O)N3C)C2=O [Compound 146, (S)-9-Methylamino-5-(1-methylindoline-2,3-dion-4-yl)-1,2,3,3a,4,5-hexahydro-5,8,10,10b-tetraazabenzo[e]azulen-6-one]
- inhibitory activity ([3H]-Gabapentin binding inhibition): ≥ 50%

Compound: CCNc1ncc2c(n1)N1CCC[C@H]1CN(c1cccc(OC3CCNCC3)c1)C2=O [Compound 147, (S)-9-Ethylamino-5-[3-(piperidin-4-yloxy)phenyl]-1,2,3,3a,4,5-hexahydro-5,8,10,10b-tetraazabenzo[e]azulen-6-one]
- inhibitory activity ([3H]-Gabapentin binding inhibition): ≥ 50%

Compound: CCNc1ncc2c(n1)N1CCC[C@H]1CN(c1cccc(OC3CCN(C)CC3)c1)C2=O [Compound 148, (S)-9-Ethylamino-5-[3-(1-methylpiperidin-4-yloxy)phenyl]-1,2,3,3a,4,5-hexahydro-5,8,10,10b-tetraazabenzo[e]azulen-6-one]
- inhibitory activity ([3H]-Gabapentin binding inhibition): ≥ 50%

Compound: CCNc1ncc2c(n1)N1CCC[C@H]1CN(c1cccc(OC3CCN(C(C)C)CC3)c1)C2=O [Compound 149, (S)-9-Ethylamino-5-[3-(1-isopropylpiperidin-4-yloxy)phenyl]-1,2,3,3a,4,5-hexahydro-5,8,10,10b-tetraazabenzo[e]azulen-6-one]
- inhibitory activity ([3H]-Gabapentin binding inhibition): ≥ 50%

Compound: CCNc1ncc2c(n1)N1CCC[C@H]1CN(c1cccc(OC3CCN(C(C)=O)CC3)c1)C2=O [Compound 150, (S)-5-[3-(1-Acetylpiperidin-4-yloxy)phenyl]-9-ethylamino-1,2,3,3a,4,5-hexahydro-5,8,10,10b-tetraazabenzo[e]azulen-6-one]
- inhibitory activity ([3H]-Gabapentin binding inhibition): ≥ 50%

Compound: CCNc1ncc2c(n1)N1CCC[C@H]1CN(c1cccc(N3CCN(C(C)=O)CC3)c1)C2=O [Compound 151, (S)-5-[3-(4-Acetylpiperazine-1-yl)phenyl]-9-ethylamino-1,2,3,3a,4,5-hexahydro-5,8,10,10b-tetraazabenzo[e]azulen-6-one]
- inhibitory activity ([3H]-Gabapentin binding inhibition): ≥ 50%

Compound: CCNc1ncc2c(n1)N1CCC[C@H]1CN(c1cccc(N3CCN(C)CC3)c1)C2=O [Compound 152, (S)-9-Ethylamino-5-[3-(4-methylpiperazine-1-yl)phenyl]-1,2,3,3a,4,5-hexahydro-5,8,10,10b-tetraazabenzo[e]azulen-6-one]
- inhibitory activity ([3H]-Gabapentin binding inhibition): ≥ 50%

Compound: CCNc1ncc2c(n1)N1CCC[C@H]1CN(c1cccc(N3CCN(C(=O)CC)CC3)c1)C2=O [Compound 153, (S)-9-Ethylamino-5-[3-(4-propionylpiperazine-1-yl)phenyl]-1,2,3,3a,4,5-hexahydro-5,8,10,10b-tetraazabenzo[e]azulen-6-one]
- inhibitory activity ([3H]-Gabapentin binding inhibition): ≥ 50%

Compound: CCNc1nc(NCC)c2c(n1)N1CCC[C@H]1CN(c1cccc(-c3nn(C)c(=O)o3)c1)C2=O [Compound 158, (S)-5-[3-(7,9-bis(Ethylamino)-6-oxo-2,3,3a,4-tetrahydro-1H,6H-5,8,10,10b-tetraazabenzo[e]azulen-5-yl)phenyl]-3-methyl-1,3,4-oxadiazol-2(3H)-one]
- inhibitory activity ([3H]-Gabapentin binding inhibition): ≥ 50%

Compound: CCNc1ncc2c(n1)N1CCC[C@H]1CN(c1cccc(C(=O)Nc3cccnc3)c1)C2=O [Compound 163, (S)—N-(Pyridin-3-yl) 3-(9-Ethylamino-6-oxo-2,3,3a,4-tetrahydro-1H,6H-5,8,10,10b-tetraazabenzo[e]azulen-5-yl)benzamide]
- inhibitory activity ([3H]-Gabapentin binding inhibition): ≥ 50%

Compound: CCNc1ncc2c(n1)N1CCC[C@H]1CN(c1cccc(-c3nccs3)c1)C2=O [Compound 164, (S)-9-Ethylamino-5-[3-(1,3-thiazol-2-yl)phenyl]-1,2,3,3a,4,5-hexahydro-5,8,10,10b-tetraazabenzo[e]azulen-5-one]
- inhibitory activity ([3H]-Gabapentin binding inhibition): ≥ 50%

Compound: CCNc1ncc2c(n1)N1CCC[C@H]1CN(Cc1ccc(OC)cc1F)C2=O [Compound 171, (S)-9-Ethylamino-5-(2-fluoro-4-methoxybenzyl)-1,2,3,3a,4,5-hexahydro-5,8,10,10b-tetraazabenzo[e]azulen-5-one]
- inhibitory activity ([3H]-Gabapentin binding inhibition): ≥ 50%

Compound: CCNc1ncc2c(n1)N1CCC[C@H]1CN(Cc1ccc(-c3ncco3)nc1)C2=O [Compound 178, (S)-5-{[2-(1,3-Oxazol-2-yl)pyridin-5-yl]methyl}-9-ethylamino-1,2,3,3a,4,5-hexahydro-5,8,10,10b-tetraazabenzo[e]azulen-5-one]
- inhibitory activity ([3H]-Gabapentin binding inhibition): ≥ 50%

Compound: CCNc1ncc2c(n1)N1CCC[C@H]1CN(Cc1ccc(N3CCN(C(C)=O)CC3)nc1)C2=O [Compound 179, (S)-5-{[2-(4-Acetylpiperazine-1-yl)pyridin-5-yl]methyl}-9-ethylamino-1,2,3,3a,4,5-hexahydro-5,8,10,10b-tetraazabenzo[e]azulen-5-one]
- inhibitory activity ([3H]-Gabapentin binding inhibition): ≥ 50%

Compound: CCNc1ncc2c(n1)N1CCC[C@H]1CN(Cc1ccc(-c3ccc(Cl)nc3)nc1)C2=O [Compound 181, (S)-5-{[2-(2-Chloropyridin-5-yl)pyridin-5-yl]methyl}-9-ethylamino-1,2,3,3a,4,5-hexahydro-5,8,10,10b-tetraazabenzo[e]azulen-5-one]
- inhibitory activity ([3H]-Gabapentin binding inhibition): ≥ 50%

Compound: CCNc1ncc2c(n1)N1CCC[C@H]1CN(CC1CCN(c3cncnc3)CC1)C2=O [Compound 182, (S)-9-Ethylamino-5-{[1-(pyrimidin-5-yl)piperidin-4-yl]methyl}-1,2,3,3a,4,5-hexahydro-5,8,10,10b-tetraazabenzo[e]azulen-5-one]
- inhibitory activity ([3H]-Gabapentin binding inhibition): ≥ 50%

Compound: CCNc1ncc2c(n1)N1CCC[C@H]1CN(CC1CCN(C(C)C)CC1)C2=O [Compound 183, (S)-9-Ethylamino-5-[(1-isopropylpiperidin-4-yl)methyl]-1,2,3,3a,4,5-hexahydro-5,8,10,10b-tetraazabenzo[e]azulen-5-one]
- inhibitory activity ([3H]-Gabapentin binding inhibition): ≥ 50%

Compound: CCNc1ncc2c(n1)N1CCC[C@H]1CN(CC1CCN(Cc3ccoc3)CC1)C2=O [Compound 184, (S)-9-Ethylamino-5-{[1-(furan-3-ylmethyl)piperidin-4-yl]methyl}-1,2,3,3a,4,5-hexahydro-5,8,10,10b-tetraazabenzo[e]azulen-5-one]
- inhibitory activity ([3H]-Gabapentin binding inhibition): ≥ 50%

Compound: (S)-5-[(2-Chloro-6-cyanopyridin-3-yl)methyl]-9-ethylamino-1,2,3,3a,4,5-hexahydro-5,8,10,10b-tetraazabenzo[e]azulen-5-one [Compound 177]
- inhibitory activity ([3H]-Gabapentin binding inhibition): ≥ 50%
